Patent US5883102A, “Pharmaceutically active compounds” (Astra Pharmaceuticals Limited, priority 1995, dated 1999)
pIC50: −log10 of the molar value. Structures can show the parent of a compound that is named as a salt. Some of these results come from one statement about several compounds together.

target: T1, human form of induced nitric oxide synthase (Homo sapiens, UniProt P35228); test: activity against the human form of induced nitric oxide synthase, lysate of induced human colon adenocarcinoma cell line DLD1; format: biochemical; conditions: IL-1β and IFN-γ induced, preincubated 1 hour at 37° C., then 1 hour at 37° C., read-out: IC50 (concentration of drug substance which gives 50% enzyme inhibition in the assay)
T1 construct: Nitric oxide synthase is produced by cells in response to interferon; endogenous in cells; host or cells: DLD1 human colon adenocarcinoma cell line (European Collection of Animal Cell Culture, cell line number 90102540), induced with IL-1beta and IFN-gamma; crude lysate

SMILES | pIC50
NC1=NC2(CCN(C(=O)OCCCCc3cccs3)CC2)Nc2cccc(F)c21 [Example 229, 4-(2-Thienylbutyl 4'-amino-5'-fluorospiro[piperidine-4,2'(1'H)-quinazoline]-1-carboxylate hydrochloride] | > 4.60
CCc1ccc(C(=O)N2CCC3(CC2)N=C(N)c2c(F)cccc2N3)s1 [Example 131, 1-(5-Ethyl-2-thienylcarbonyl)-5'-fluorospiro[piperidine-4,2'(1'H)-quinazoline]-4'-amine hydrochloride] | > 4.60
N=C(c1cccs1)N1CCC2(CC1)N=C(N)c1c(F)cccc1N2 [Example 154, 5'-Fluoro-1-(2-thienyl)iminomethylspiro[piperidine-4,2'-[1'H]-quinazoline]-4'-amine dihydrochloride] | > 4.60
Cc1ccc(C(=O)N2CCC3(CC2)N=C(N)c2c(F)cccc2N3)s1 [Example 130, 5'-Fluoro-1-(5-methyl-2-thienylcarbonyl)spiro[piperidine-4,2'(1'H)-quinazoline]-4'-amine hydrochloride] | > 4.60
CSc1cccc2c1C(N)=NC(c1ccco1)N2 (stereo not drawn) [Example 45, 2-(2-Furyl)-5-(methylthio)-1,2-dihydro-4-quinazolinamine hydrochloride] | > 4.60
NC1=NC2(CCN(C(=O)c3ccc(C(=O)Nc4ccccc4O)cc3)CC2)Nc2cccc(F)c21 [Example 116, 4-(4'-Amino-5'-fluorospiro[piperidine-4,2'(1'H)-quinazoline]-1-ylcarbonyl)-N-(2-hydroxyphenyl)benzamide hydrochloride] | > 4.60
CC(C)COC(=O)N1CCC2(CC1)N=C(N)c1c(F)cccc1N2 [Example 191, 2-Methylpropyl 4'-amino-5'-fluorospiro[piperidine-4,2'-[1'H]-quinazoline]-1-carboxylate hydrochloride] | > 4.60
CCCCCCOC(=O)N1CCC2(CC1)N=C(N)c1c(F)cccc1N2 [Example 199, Hexyl 4'-amino-5'-fluorospiro[piperidine-4,2'(1'H)-quinazoline]-1-carboxylate hydrochlorid] | > 4.60
NC1=NC2(CCN(C(=O)OCCCN3C(=O)c4ccccc4C3=O)CC2)Nc2cccc(F)c21 [Example 231, 3-1,3-Dihydro-1,3-dioxo-2H-isoindol-2-yl)propyl 4'-amino-5'-fluorospiro[piperidine-4,2'(1'H)-quinazoline]-1-carboxylate hydrochloride] | > 4.60
NC1=NC2(CCN(C(=O)c3cccc([N+](=O)[O-])c3)CC2)Nc2ccccc21 [Example 62, 1-(3-Nitrobenzoyl)spiro[piperidine-4,2'(1'H)-quinazoline]-4'-amine hydrochloride] | > 4.60
NC1=NC(c2ccccc2[N+](=O)[O-])Nc2ccccc21 (stereo not drawn) [Example 21, 1,2-Dihydro-2-(2-nitrophenyl)-4-quinazolinamine hydrochloride] | > 4.60
CN(C)c1ccc(C2N=C(N)c3ccccc3N2)cc1 (stereo not drawn) [Example 17, 2-(4-Dimethylaminophenyl)-1,2-dihydro-4-quinazolinamine hydrochloride] | > 4.60
CCOC(=O)N1CCC2(CC1)N=C(N)c1c(F)cccc1N2 [Example 179, Ethyl 4'-amino-5'-fluorospiro[piperidine-4,2'(1'H)-quinazoline]-1-carboxylate hydrochloride] | > 4.60
NC1=NC2(CCN(Cc3ccccc3)CC2)Nc2cccc(F)c21 [Example 245, 5'-Fluoro-1-(phenylmethyl)spiro[piperidine-4,2'-[1'H]-quinazoline-4'-aminedihydrochloride] | > 4.60
NC1=NC2(CCN(C(=O)OCC(F)(F)F)CC2)Nc2cccc(F)c21 [Example 205, 2.2.2-Trifluoroethyl 4'-amino-5'-fluorospiro[piperidine-4,2'(1'H)-quinazoline]-1-carboxylate hydrochloride] | > 4.60
NC1=NC2(CCN(C(=O)c3ccco3)CC2)Nc2cccc(F)c21 [Example 123, 5'-Fluoro-1-(2-furylcarbonyl)spiro[piperidine-4,2'(1'H)-quinazoline]-4'-amine hydrochloride] | > 4.60
NC1=NC2(CCN(C(=O)c3ccncc3)CC2)Nc2ccccc21 [Example 71, 1-(4-Pyridylcarbonyl)spiro[piperidine-4,2'(1'H)-quinazoline]-4'-amine hydrochloride] | > 4.60
CCOC(=O)N1CCCC2(C1)N=C(N)c1ccccc1N2 (stereo not drawn) [Example 187, Ethyl 4'-aminospiro[piperidine-3,2'(1'H)-quinazoline]-1-carboxylate hydrochloride] | > 4.60
CCCCOC(=O)N1CCC2(CC1)N=C(N)c1c(F)cccc1N2 [Example 197, Butyl 4'-amino-5'-fluorospiro[piperidine-4,2'(1'H)-quinazoline]-1-carboxylate hydrochloride] | > 4.60
NC1=NC2(CCN(C(=O)c3ccc(Cl)c(N)c3)CC2)Nc2ccccc21 [Example 88, 1-(3-Amino-4-chlorobenzoyl)spiro[piperidine-4,2'(1'H)-quinazoline]-4'-amine] | > 4.60

SMILES | pIC50
NC1=NC2(CCN(C(=O)c3cccs3)CC2)Nc2c(F)ccc(F)c21 [Example 164, 5',8'-difluoro-1-(2-thienylcarbonyl)spiro[piperidine-4,2'(1'H)-quinazoline]-4'-amine hydrochloride] | > 4.60
NC1=NC2(CCN(C(=O)c3ccc(I)cc3)CC2)Nc2ccccc21 [Example 78, 1-(4-Iodobenzoyl)spiro[piperidine-4,2'(1'H)-quinazoline]-4'-amine hydrochloride] | > 4.60
COc1ccc(C(=O)N2CCC3(CC2)N=C(N)c2ccccc2N3)cc1 [Example 55, 1-(4-Methoxybenzoyl)spiro[piperidine-4,2'(1'H)-quinazoline]-4'-amine hydrochloride] | > 4.60
N#Cc1ccc(C(=O)N2CCC3(CC2)N=C(N)c2c(Cl)cccc2N3)cc1 [Example 99, 5'-Chloro-1-(4H)-cyanobenzoyl)spiro[piperidine-4,2'(1'-quinazoline]-4'-amine hydrochloride] | > 4.60
CS(=O)(=O)CCCOC(=O)N1CCC2(CC1)N=C(N)c1c(F)cccc1N2 [Example 158, 3-(Methanesulphonyl)propyl 4'-amino-5'-fluorospiro[piperidine-4,2'-[1'H]-quinazoline]-1-carboxylate hydrochloride] | > 4.60
NC1=NC2(CCN(C(=O)OCCCc3ccccc3)CC2)Nc2cccc(F)c21 [Example 215, 3-Phenylpropyl 4'-amino-5'-fluorospiro[piperidine-4,2'-(1'H)quinazoline]-1-carboxylate hydrochloride] | > 4.60
NC1=NC2(CCN(C(=O)c3ccc(Cl)s3)CC2)Nc2cccc(F)c21 [Example 128, 5'-Fluoro-1-(5-chloro-2-thienylcarbonyl)spiro[piperidine-4,2'(1'H)-quinazoline]-4'-amine hydrochloride] | > 4.60
NC1=NC2(CCN(C(=O)c3ccc(Cl)s3)CC2)Nc2ccccc21 [Example 84, 1-(5-Chloro-2-thienylcarbonyl)spiro[piperidine-4,2'(1'H)-quinazoline]-4'-amine hydrochloride] | > 4.60
CN1c2ccccc2C(N)=NC1c1ccccc1 (stereo not drawn) [Example 46, 1,2-Dihydro-1-methyl-2-phenyl-4-quinazolinamine hydrochloride] | > 4.60
NC1=NC2(CCN(C(=O)c3ccc(C(=O)O)cc3)CC2)Nc2ccccc21 [Example 257, 4-(4'-Aminospiro[piperidine-4,2'(1'H)-quinazoline]-1-ylcarbonyl)benzoic acid hydrochloride] | > 4.60
NC1=NC2(CCN(C(=O)c3ccccc3[N+](=O)[O-])CC2)Nc2ccccc21 [Example 61, 1-(2-Nitrobenzoyl)spiro[piperidine-4,2'(1'H)-quinazoline]-4'-amine hydrochloride] | > 4.60
NC1=NC2(CCN(C(=O)c3ccc4c(c3)OCO4)CC2)Nc2cccc(F)c21 [Example 150, 1-(1,3-Benzodioxol-5-ylcarbonyl)-5'-fluorospiro[piperidine-4,2'(1'H)-quinazoline]-4'-amine hydrochloride] | > 4.60
NC1=NC2(CCN(C(=O)c3ccc(O)cc3)CC2)Nc2ccccc21 [Example 66, 1-((4-Hydroxy)benzoyl)spiro[piperidine-4,2'(1'H)-quinazoline]-4'-amine hydrochloride] | > 4.60
NC1=NC2(CCN(C(=O)c3ccc(Br)s3)CC2)Nc2cccc(F)c21 [Example 129, 1-(5-Bromo-2-thienylcarbonyl)-5'-fluorospiro[piperidine-4,2'(1'H)-quinazoline]-4'-amine hydrochloride] | > 4.60
COC(=O)c1ccc(C(=O)N2CCC3(CC2)N=C(N)c2ccccc2N3)cc1 [Example 90, Methyl 4-(4'-aminospiro[piperidine-4,2'(1'H)-quinazoline]-1-ylcarbonyl)benzoate hydrochloride] | > 4.60
COc1ccc(Br)cc1COC(=O)N1CCC2(CC1)N=C(N)c1c(F)cccc1N2 [Example 234, 5-Bromo-2-methoxyphenylmethyl 4'-amino-5'-fluorospiro[piperidine-4,2'(1'H)-quinazoline]1-carboxylate hydrochloride] | > 4.60
Cc1noc(N2CCC3(CC2)N=C(N)c2ccccc2N3)n1 [Example 93, 1-(3-Methyl-1,2,4-oxadiazol-5-yl)spiro[piperidine-4,2'(1'H)-quinazoline]-4'-amine hydrochloride] | > 4.60
COC(=O)N1CCC2(CC1)N=C(N)c1c(F)cccc1N2 [Example 190, Methyl 4'-amino-5'-fluorospiro[piperidine-4,2'-[1'H]-quinazoline]-1-carboxylate hydrochloride] | > 4.60
NC1=NC2(CCN(C(=O)c3cc4ccccc4s3)CC2)Nc2cccc(F)c21 [Example 148, 5'-Fluoro-1-(2-benzo[b]thienylcarbonal)spiro[piperidine-4,2'(1'H)-quinazoline]-4'-amine hydrochloride] | > 4.60
